Assay results from PubChem BioAssay AID272 (DTP/NCI, 2004).
The list is a part of this screen's results and no random one: its compounds were picked by chemical class. Not every dose and run of a compound is shown. T/C: endpoint of the treated group in % of that of the vehicle group. Schedule codes are those of the source, taken here to give the interval after Q, in days (D) or hours (H), and the number of doses after X. Some T/C values carry the count of animals alive at the toxicity check; without a count or a note in brackets, all were alive then. Some doses have a count of surviving animals in place of a T/C: the source holds a T/C of zero for them, seemingly a mark for toxic or unscored doses. Some doses without a T/C left all or most animals alive at the check, yet need not have been tolerated: survival well below the control is almost never listed, so the zero probably covers shortened survival too. Counts of survivors are from the toxicity check (mostly the fifth day) where no day follows; animals may have died later. Counts of survivors are from the toxicity check, whose day is not always given; animals may have died later. Where survival is the endpoint, the PubChem record calls one and a half times the control and up active, and a quarter to a half above the control has no call in these data; cut-offs in other NCI protocols can differ. Some T/C values carry the count of animals alive at the toxicity check (mostly the fifth day); where neither a count nor a note follows, no animal had died by that day.

Test system: Lewis lung carcinoma i.m., BDF1 mice, T/C %
Assay: NCI In Vivo Anticancer Drug Screen. Data for tumor model Lewis Lung Carcinoma (intramuscular) in B6D2F1 (BDF1) mice
Experimental: The antitumor activity of compounds was measured in mice bearing transplantable tumors. Survival or tumor size were measured and the results are expressed as the measurement made in the treated group (T) divided by the measurement made in the vehicle treated control group (C). The tumor model used in this assay is Lewis Lung Carcinoma (intramuscular) in B6D2F1 (BDF1) mice

Q: Which results are given for `N#C/C(=C\c1ccc(N(CCBr)CCBr)cc1)C(N)=O`?
A: T/C (T/C endpoint: mean tumor weight (est.), dose: 2.0 mg/kg/injection, schedule: Q01DX011 (ip), vehicle: saline with Tween-80, evaluated on day 12, higher T/C = larger tumour): 50 % of control [7 of 8 alive]; survivor count (T/C endpoint: mean tumor weight (est.), dose: 4.0 mg/kg/injection, schedule: Q01DX011 (ip), vehicle: saline with Tween-80, higher T/C = larger tumour): 1 of 8; T/C (T/C endpoint: median survival time, dose: 1.0 mg/kg/injection, schedule: Q01DX011 (ip), vehicle: saline with Tween-80, higher T/C = longer survival): 100 % of control; survivor count (T/C endpoint: median survival time, dose: 2.0 mg/kg/injection, schedule: Q01DX011 (ip), vehicle: saline with Tween-80, higher T/C = longer survival): 7 of 8; survivor count (T/C endpoint: median survival time, dose: 4.0 mg/kg/injection, schedule: Q01DX011 (ip), vehicle: saline with Tween-80, higher T/C = longer survival): 1 of 8; survivor count (T/C endpoint: median survival time, dose: 8.0 mg/kg/injection, schedule: Q01DX011 (ip), vehicle: saline with Tween-80, higher T/C = longer survival): 0 of 8

Q: `NP(=O)(O)N(CCCl)CCCl` was tested. Which T/C (T/C endpoint: mean tumor weight (est.), dose: 12.5 mg/kg/injection, schedule: Q01DX011 (ip), vehicle: water, evaluated on day 12, higher T/C = larger tumour) did it give?
A: Its T/C is 74 % of control.

Q: And the T/C (T/C endpoint: mean tumor weight (est.), dose: 25.0 mg/kg/injection, schedule: Q01DX011 (ip), vehicle: water, evaluated on day 12, higher T/C = larger tumour)?
A: The T/C was 57 % of control.

Q: And the T/C (T/C endpoint: mean tumor weight (est.), dose: 25.0 mg/kg/injection, schedule: Q04DX003 (ip), vehicle: saline, evaluated on day 12, higher T/C = larger tumour)?
A: Its T/C is 70 % of control.

Q: And the T/C (T/C endpoint: mean tumor weight (est.), dose: 50.0 mg/kg/injection, schedule: Q01DX011 (ip), vehicle: water, evaluated on day 12, higher T/C = larger tumour)?
A: Its T/C is 50 % of control [7 of 8 alive].

Q: What about the T/C (T/C endpoint: mean tumor weight (est.), dose: 50.0 mg/kg/injection, schedule: Q04DX003 (ip), vehicle: saline, evaluated on day 12, higher T/C = larger tumour) of the same compound?
A: The T/C was 74 % of control.

Q: What about the survivor count (T/C endpoint: mean tumor weight (est.), dose: 100.0 mg/kg/injection, schedule: Q01DX011 (ip), vehicle: water, higher T/C = larger tumour) of the same compound?
A: The survivor count was 5 of 8.

Q: What about the T/C (T/C endpoint: mean tumor weight (est.), dose: 100.0 mg/kg/injection, schedule: Q04DX003 (ip), vehicle: saline, evaluated on day 12, higher T/C = larger tumour) of the same compound?
A: The T/C was 59 % of control.

Q: And the T/C (T/C endpoint: mean tumor weight (est.), dose: 200.0 mg/kg/injection, schedule: Q04DX003 (ip), vehicle: saline, evaluated on day 12, higher T/C = larger tumour)?
A: The T/C was 31 % of control [6 of 8 alive].

Q: And the T/C (T/C endpoint: mean tumor weight, dose: 25.0 mg/kg/injection, schedule: Q04DX003 (ip), vehicle: saline, evaluated on day 12, higher T/C = larger tumour)?
A: The T/C was 86 % of control.

Q: And the T/C (T/C endpoint: mean tumor weight, dose: 50.0 mg/kg/injection, schedule: Q04DX003 (ip), vehicle: saline, evaluated on day 12, higher T/C = larger tumour)?
A: Its T/C is 67 % of control.

Q: What about the T/C (T/C endpoint: mean tumor weight, dose: 100.0 mg/kg/injection, schedule: Q04DX003 (ip), vehicle: saline, evaluated on day 12, higher T/C = larger tumour) of the same compound?
A: The T/C was 38 % of control.

Q: What about the survivor count (T/C endpoint: mean tumor weight, dose: 200.0 mg/kg/injection, schedule: Q04DX003 (ip), vehicle: saline, higher T/C = larger tumour) of the same compound?
A: Its survivor count is 1 of 8.

Q: And the T/C (T/C endpoint: median survival time, dose: 12.5 mg/kg/injection, schedule: Q01DX011 (ip), vehicle: water, higher T/C = longer survival)?
A: The T/C was 139 % of control.

Q: What about the T/C (T/C endpoint: median survival time, dose: 25.0 mg/kg/injection, schedule: Q01DX011 (ip), vehicle: water, higher T/C = longer survival) of the same compound?
A: The T/C was 122 % of control.

Q: What about the T/C (T/C endpoint: median survival time, dose: 25.0 mg/kg/injection, schedule: Q04DX003 (ip), vehicle: saline, higher T/C = longer survival) of the same compound?
A: The T/C was 93 % of control.

Q: What about the T/C (T/C endpoint: median survival time, dose: 50.0 mg/kg/injection, schedule: Q01DX011 (ip), vehicle: water, higher T/C = longer survival) of the same compound?
A: Its T/C is 108 % of control [7 of 8 alive].

Q: What about the T/C (T/C endpoint: median survival time, dose: 50.0 mg/kg/injection, schedule: Q04DX003 (ip), vehicle: saline, higher T/C = longer survival) of the same compound?
A: Its T/C is 93 % of control.

Q: And the survivor count (T/C endpoint: median survival time, dose: 100.0 mg/kg/injection, schedule: Q01DX011 (ip), vehicle: water, higher T/C = longer survival)?
A: The survivor count was 5 of 8.

Q: What about the T/C (T/C endpoint: median survival time, dose: 100.0 mg/kg/injection, schedule: Q04DX003 (ip), vehicle: saline, higher T/C = longer survival) of the same compound?
A: Its T/C is 98 % of control.

Q: And the survivor count (T/C endpoint: median survival time, dose: 200.0 mg/kg/injection, schedule: Q04DX003 (ip), vehicle: saline, higher T/C = longer survival)?
A: The survivor count was 6 of 8.

Q: How did the T/C (T/C endpoint: mean tumor weight (est.), dose: 5.0 mg/kg/injection, schedule: Q01DX011 (ip), vehicle: saline with Tween-80, evaluated on day 12, higher T/C = larger tumour) turn out when `ClCCNc1nc2ccc(Cl)cc2c2ccccc12` was run?
A: Its T/C is 57 % of control.

Q: What about the survivor count (T/C endpoint: mean tumor weight (est.), dose: 10.0 mg/kg/injection, schedule: Q01DX011 (ip), vehicle: saline with Tween-80, higher T/C = larger tumour) of the same compound?
A: Its survivor count is 2 of 8.

Q: What about the T/C (T/C endpoint: median survival time, dose: 5.0 mg/kg/injection, schedule: Q01DX011 (ip), vehicle: saline with Tween-80, higher T/C = longer survival) of the same compound?
A: The T/C was 112 % of control.

Q: What about the survivor count (T/C endpoint: median survival time, dose: 10.0 mg/kg/injection, schedule: Q01DX011 (ip), vehicle: saline with Tween-80, higher T/C = longer survival) of the same compound?
A: Its survivor count is 2 of 8.

Q: What about the survivor count (T/C endpoint: median survival time, dose: 20.0 mg/kg/injection, schedule: Q01DX011 (ip), vehicle: saline with Tween-80, higher T/C = longer survival) of the same compound?
A: The survivor count was 0 of 8.

Q: And the survivor count (T/C endpoint: median survival time, dose: 40.0 mg/kg/injection, schedule: Q01DX011 (ip), vehicle: saline with Tween-80, higher T/C = longer survival)?
A: Its survivor count is 0 of 8.
